Source: patent US20260079169A1, “VOLATILE ORGANIC COMPOUNDS AS MARKERS FOR CELLULAR COMMUNICATION” (Technion Research and Development Foundation Limited, priority 2020, published 2026)
The amount applied is not stated for every result.

Tests used:
[1] = tested on: different-cell pairs of BEAS-2B, A549, H1299, H1975 without physical contact under a mutual headspace; assay: VOCs headspace analysis (ITEX GC-MS) of different-cell pair co-culture headspace groups (Format-3), bulk cell samples; format: cell-based, human; set-up: key to Category (VOC increased or decreased relative to the control): ↑: Increased; ↓: decreased; ↑*: <0.01; ↑**: <0.001; conditions: different-cell pair co-culture headspace (Format-3), averaged peak area (n = 3)
[2] = tested on: A549, H1299, H1975 human lung cancer lines and BEAS-2B normal cell line, each cultured alone; assay: VOCs headspace analysis (ITEX GC-MS) of mono-culture groups (Format-1), bulk cell samples 1×10^4 cells; format: cell-based; set-up: key to Category (VOC increased or decreased relative to the control): ↑: Increased; ↓: decreased; ↑*: <0.01; ↑**: <0.001; conditions: mono-culture groups (Format-1), averaged peak area (n = 3)

In the case of `CCCCC(CC)CO` (centres unmarked) [1-Hexanol, 2-ethyl-], the “Category (VOC increased or decreased relative to the control)” value ([1]; 24 h) is reported as “↑* (↑*: <0.01)”, the “Category (VOC increased or decreased relative to the control)” value ([1]; 48 h) is reported as “↓” and the “Category (VOC increased or decreased relative to the control)” value ([2]; 24 h incubation) is reported as “↑* (↑*: <0.01)”.
In the case of `CC1(C)CCO1` [2,2-Dimethyloxetane], the “Category (VOC increased or decreased relative to the control)” value ([1]; 72 h) is reported as “↑” and the “Category (VOC increased or decreased relative to the control)” value ([2]; 48 h incubation) is reported as “↑* (↑*: <0.01)”.
With `CC(C)(C)c1ccc(O)c(C(C)(C)C)c1` [2,4-Di-tert-butylphenol] the “Category (VOC increased or decreased relative to the control)” value ([1]; 24 h) was “↑” and the “Category (VOC increased or decreased relative to the control)” value ([2]; 48 h incubation) was “↑”.
`C=C(C)CCC(C)CC` (centres unmarked) [2,5-Dimethyl-1-heptene] was tested, and the “Category (VOC increased or decreased relative to the control)” value ([2]; 24 h incubation) was “↓”.
In the case of `CC(C)(O)CCC(C)(C)O` [2,5-Dimethyl-2,5-hexanediol], the “Category (VOC increased or decreased relative to the control)” value ([2]; 24 h incubation) is reported as “↓”.
`CC(C)(C)c1cccc(C(C)(C)C)c1O` [2,6-Di-tert-butylphenol] was tested, and the “Category (VOC increased or decreased relative to the control)” value ([1]; 72 h) was “↑” and the “Category (VOC increased or decreased relative to the control)” value ([2]; 72 h incubation) was “↑”.
In the case of `CCC(C)=O` [2-Butanone], the “Category (VOC increased or decreased relative to the control)” value ([2]; 48 h incubation) is reported as “↑* (↑*: <0.01)”.
For `CCCCC(C)=O` [2-Hexanone], the “Category (VOC increased or decreased relative to the control)” value ([2]; 48 h incubation) was “↑”.
`CC(C)CO` [2-Methyl-1-propanol] was tested, and the “Category (VOC increased or decreased relative to the control)” value ([2]; 48 h incubation) was “↑”.
In the case of `CC(=O)CCC=C(C)C` [2-Methyl-2-hepten-6-one], the “Category (VOC increased or decreased relative to the control)” value ([2]; 24 h incubation) is reported as “↑* (↑*: <0.01)” and the “Category (VOC increased or decreased relative to the control)” value ([2]; 72 h incubation) is reported as “↑* (↑*: <0.01)”.
With `CCCCCCC(C)=O` [2-Octanone] the “Category (VOC increased or decreased relative to the control)” value ([2]; 48 h incubation) was “↑”.
For `CCCC(C)=O` [2-Pentanone], the “Category (VOC increased or decreased relative to the control)” value ([2]; 48 h incubation) was “↑* (↑*: <0.01)”.
In the case of `C=C(C)CCO` [3-Methyl-3-buten-1-ol], the “Category (VOC increased or decreased relative to the control)” value ([2]; 24 h incubation) is reported as “↑” and the “Category (VOC increased or decreased relative to the control)” value ([2]; 48 h incubation) is reported as “↑”.
With `CCCCCC(O)CC` (centres unmarked) [3-Octanol] the “Category (VOC increased or decreased relative to the control)” value ([2]; 24 h incubation) was “↑”.
For `CC(=O)CC(C)CC(C)C` (centres unmarked) [4,6-Dimethyl-2-heptanone], the “Category (VOC increased or decreased relative to the control)” value ([1]; 72 h) was “↑” and the “Category (VOC increased or decreased relative to the control)” value ([2]; 24 h incubation) was “↓”.
With `CC(=O)CCOC(C)C` [4-Isopropoxy-2-butanone] the “Category (VOC increased or decreased relative to the control)” value ([1]; 48 h) was “↓” and the “Category (VOC increased or decreased relative to the control)” value ([2]; 48 h incubation) was “↑”.
`CCCCC(O)CCC` (centres unmarked) [5-Octanol] was tested, and the “Category (VOC increased or decreased relative to the control)” value ([2]; 24 h incubation) was “↑”.
For `CC#N` [Acetonitrile], the “Category (VOC increased or decreased relative to the control)” value ([2]; 72 h incubation) was “↑* (↑*: <0.01)”.
`CC(=O)CCC(C)=O` [Acetonylacetone] was tested, and the “Category (VOC increased or decreased relative to the control)” value ([2]; 48 h incubation) was “↑* (↑*: <0.01)”.
In the case of `CC(=O)c1ccccc1` [Acetophenone], the “Category (VOC increased or decreased relative to the control)” value ([2]; 24 h incubation) is reported as “↑* (↑*: <0.01)” and the “Category (VOC increased or decreased relative to the control)” value ([2]; 48 h incubation) is reported as “↑* (↑*: <0.01)”.
With `O=Cc1ccccc1` [Benzaldehyde] the “Category (VOC increased or decreased relative to the control)” value ([2]; 24 h incubation) was “↑” and the “Category (VOC increased or decreased relative to the control)” value ([2]; 72 h incubation) was “↑”.
With `CC(C)CC=O` [Butanal, 3-methyl-] the “Category (VOC increased or decreased relative to the control)” value ([2]; 24 h incubation) was “↑* (↑*: <0.01)”, the “Category (VOC increased or decreased relative to the control)” value ([2]; 72 h incubation) was “↑* (↑*: <0.01)” and the “Category (VOC increased or decreased relative to the control)” value ([2]; 72 h incubation, listed as 3-methyl butanal) was “↑”.
For `O=C1CCCCC1` [Cyclohexanone], the “Category (VOC increased or decreased relative to the control)” value ([2]; 72 h incubation) was “↓”.
In the case of `CCOCC` [Diethyl ether], the “Category (VOC increased or decreased relative to the control)” value ([2]; 48 h incubation) is reported as “↑* (↑*: <0.01)”.
In the case of `CCCCCCC(C)CC(C)CCC` (centres unmarked) [Dodecane, 4,6-dimethyl-], the “Category (VOC increased or decreased relative to the control)” value ([2]; 24 h incubation) is reported as “↑* (↑*: <0.01)” and the “Category (VOC increased or decreased relative to the control)” value ([2]; 72 h incubation) is reported as “↑* (↑*: <0.01)”.
`CC(CC(C)(C)C)CC(C)(C)C` [Heptane, 2,2,4,6,6-pentamethyl-] was tested, and the “Category (VOC increased or decreased relative to the control)” value ([2]; 24 h incubation) was “↑* (↑*: <0.01)” and the “Category (VOC increased or decreased relative to the control)” value ([2]; 72 h incubation) was “↓”.
With `CC1=CC(=O)CC(C)(C)C1` [Isophorone] the “Category (VOC increased or decreased relative to the control)” value ([2]; 72 h incubation) was “↓”.
`CCCCCCCCC=O` [Nonanal] was tested, and the “Category (VOC increased or decreased relative to the control)” value ([2]; 24 h incubation) was “↑”.
`CCCCC(C)(CCC)CCCC` [Nonane, 5-methyl-5-propyl-] was tested, and the “Category (VOC increased or decreased relative to the control)” value ([2]; 24 h incubation) was “↑” and the “Category (VOC increased or decreased relative to the control)” value ([2]; 72 h incubation) was “↓”.
In the case of `CCCC(C)CCCCC(C)CC` (centres unmarked) [Undecane, 3,8-dimethyl-], the “Category (VOC increased or decreased relative to the control)” value ([2]; 24 h incubation) is reported as “↑* (↑*: <0.01)” and the “Category (VOC increased or decreased relative to the control)” value ([2]; 72 h incubation) is reported as “↑* (↑*: <0.01)”.
